Reference: PubChem BioAssay AID1259254 (NCATS, 2017)
This is a random part of about 59,000 reagents tested. Of all reagents, about 1,550 (2.6%) got an active call. 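G2 share is only a proxy for re-replication; each gene was hit by three separate siRNAs, and active genes were retested.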 Reagents against one gene are numbered here. Not all columns of the deposit are shown. Not given: the amount of reagent.

- Assay: 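Finding genes that stop cells copying their DNA twice in one cycle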 (primary screen)
- Cell system: human HCT116 colorectal cancer cells
- Knock-down reagent: single siRNA against human genes
- Duration: 3 days
- Read-out: 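Imaged Hoechst DNA stain sorts each cell into a cycle phase by DNA amount; per plate, G2 fraction set to 0% for non-targeting and 100% for GMNN siRNA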
- Direction: G2 robust z-score: higher = more G2 cells, more excess DNA replication
- Rule for the call: 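An siRNA counts as active if its G2 robust z-score lies at least 5 MADs above the screen median; here such calls match roughly 38% of GMNN control or more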

The first 2 records, ahead of the listing:
SPANXN4 #1
- G2 robust z-score: -0.352
- call: inactive

SPANXN4 #2
- G2 robust z-score: -0.486
- call: inactive

The list itself, repeating the preview:
SPANXN4 #1
- G2 robust z-score: -0.352
- call: inactive

SPANXN4 #2
- G2 robust z-score: -0.486
- call: inactive

SPANXN4 #3
- G2 robust z-score: -0.472
- call: inactive

ACAD11 #1
- G2 robust z-score: -0.957
- call: inactive

ACAD11 #2
- G2 robust z-score: -0.237
- call: inactive

ACAD11 #3
- G2 robust z-score: 0.0409
- call: inactive

NNAT #1
- G2 robust z-score: -0.312
- call: inactive

NNAT #2
- G2 robust z-score: 1.72
- call: inactive

NNAT #3
- G2 robust z-score: -0.612
- call: inactive

PSTPIP2 #1
- G2 robust z-score: 0.992
- call: inactive

PSTPIP2 #2
- G2 robust z-score: 1.64
- call: inactive

PSTPIP2 #3
- G2 robust z-score: -0.11
- call: inactive

UBE2E1 #1
- G2 robust z-score: -1.11
- call: inactive

UBE2E1 #2
- G2 robust z-score: 0.389
- call: inactive

UBE2E1 #3
- G2 robust z-score: 0.564
- call: inactive

GRM6 #1
- G2 robust z-score: 1.11
- call: inactive

GRM6 #2
- G2 robust z-score: 0.157
- call: inactive

GRM6 #3
- G2 robust z-score: 0.319
- call: inactive
